# These are yes or no findings as the source states them, for the method shown. Sequences can lack the tags named with a protein.
# Biological target: SUMO-tagged AbiA-ΔHEPN (aa 1-478) (L. lactis) (UniProt Q48596)
# Assay: SEC-MALS; Superdex 200 Increase 10/300 GL; 25 mM Tris pH 7.0, 400 mM NaCl, 2% glycerol, 1 mM DTT; 0.75 ml/min; self-association of AbiA variants; both purified
binder,measurement,value
"SUMO-tagged AbiA-ΔHEPN (aa 1-478) (domain or fragment, UniProt Q48596 1-478) MITLQHQDWERAVNMIKNIPPSAKNKYFQTFPFFLLSETSWEELLSENFFYSYIKSGEFLTYQENLSFYDRTIQKSHGAYRQTRIVSPIIYIFLIAIASQVERIYVEKRTNDMSVYFSGSFEKEKNTAHYKQSYNTYMTELNACQEEFDYYFQTDFSTFFHLVDTDNLFNKIDRLDPKSALVYSSLIKMIGQGRMPIVDGNSGLSFLNTVVYLDDFDKEIIDSLKTIVEIESFKLVRYVDDLHIFIKCANKDLDFLNYKVYNLLCEKATKHHLEINSSKTKSFTPTSELSTKMNTDLYNFFVYNEDVDFEQYFSKNTLIEFLDKLNNMSVNADFSEYEKEVLYTLENPEIVSDGSYILNAIVYNKSTWSQDYDIKNKISLLVNSNYRKLRYSAKALITLVLNTRDGDIIKGLLNNLFTTFKNGTNDIIDEIILIEYLVQRKFNHKDLMTILKADDHGIKEYIKAYQTSDFIKSLEKNK",binding,no binding

# — article PMC11077055, “Structure-functional characterization of Lactococcus AbiA phage defense system” (Nucleic Acids Research, 2024)
